“And” between values parts separate entries of the source, which are not always exact repeats. Identical values can stand only once. Counter-ions that a name gives are not always drawn. ± gives the standard deviation of the averaged measurements. The list shows a part of the results. Baselines shift from plate to plate; read single values as rough.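 Primary human stellate myofibroblasts activated in culture; inactivation shown by regained lipid droplets. Readout: fraction of Hoechst-counted cells exceeding a per-plate Bodipy threshold, duplicate wells, each plate with DMSO negative and nortriptyline positive controls. Hits: control-normalized score beyond the plate's top-tenth-percentile nortriptyline wells, or among its three best wells. Final well concentrations unstated.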

For this assay, the system named is primary human hepatic stellate cells (donor 1). As to the kind of experiment: percent Bodipy-positive cells; higher = more lipid droplet accumulation. The settings on record: 48 h.
Where [1] appears, read: library stock concentration: 1 mM.
[2] abbreviates: library stock concentration: 3.33 mM.
[3] abbreviates: library stock concentration: 10 mM.
Where [4] appears, read: library stock concentration: 80 uM.
[5] abbreviates: library stock concentration: 400 uM.
Where [6] appears, read: library stock concentration: 2 mM.

On to `CCCCC/C=C\C/C=C\C/C=C\C/C=C\CCCC(=O)C(F)(F)F` [Arachidonyl Trifluoromethyl Ketone], for which, under setting [1], the “percent Bodipy-positive cells” value stood at 8.25 ± 2%. `COC1CCN(C(=O)c2cc(Cc3n[nH]c(=O)c4ccccc34)ccc2F)CC1`: the “percent Bodipy-positive cells” value under setting [2] is 11.8 ± 7.5% and the “percent Bodipy-positive cells” value under setting [3] came to 37.7 ± 3%.

Turning to `C=C(C)[C@@H](CC=C(C)C)C[C@@]12C[C@@H](CC=C(C)C)C(C)(C)[C@@](CC=C(C)C)(C(=O)C(C(=O)c3ccc(O)c(O)c3)=C1O)C2=O` [Garcinol], the “percent Bodipy-positive cells” value by setting is: under setting [4], 43.9 ± 16%; under setting [5], 45.7 ± 2.9%; under setting [6], 41.6 ± 1.6%; under setting [3], 42.4 ± 15%. Take `O=c1[nH]c(=O)c2ccccc2o1`: the “percent Bodipy-positive cells” value under setting [3] stood at 31.7 ± 15%. Still for that read-out and setting: for `O=S1(=O)c2cccc3cccc(c23)N1CCCN1CCN(c2ccc(F)cc2)CC1` [Fananserin] the value was 10.58 ± 0.079%. Regarding `N=C(NC(=O)c1nc(Cl)c(N)nc1N)Nc1ccccc1` [Phenamil], the “percent Bodipy-positive cells” value (library stock concentration: 16.4 mM) worked out at 98.3 ± 1.1%. For the compound `Nc1ccn([C@@H]2O[C@H](CO)[C@@H](O)[C@@H]2O)c(=O)n1` [Cytarabine], under setting [3], the “percent Bodipy-positive cells” value was determined as 12.6 ± 2.8%. Same read-out and setting: for `Nc1ccn([C@@H]2O[C@H](CO)[C@@H](O)[C@@H]2O)c(=O)n1` [Cytosine-1-beta-D-arabinofuranoside hydrochloride] the value was 46.9 ± 20%; for `Nc1ccn([C@@H]2O[C@H](CO)[C@@H](O)[C@@H]2O)c(=O)n1` [2(1H)-Pyrimidinone, 4-amino-1-?-D-arabinofuranosyl- [CAS]], 11.1 ± 1.8%. Regarding `Nc1ncnc2c1ncn2C1CCCO1` (centres undefined), the “percent Bodipy-positive cells” value was 8.73% and 7.83% under setting [3]; 21.7 ± 6.4% (library stock concentration: 24.4 mM). As for `N#Cc1c(-c2ccccc2)no[n+]1[O-]` [Furoxan], the “percent Bodipy-positive cells” value (library stock concentration: 26.7 mM) came out at 99.2 ± 1.2%. As for `Cc1cc(C)c(S(=O)(=O)n2cc(C)cc2C)c(C)c1`, the “percent Bodipy-positive cells” value reads like this: under setting [2], 38.8 ± 15%; under setting [3], 40.3 ± 2.1%. Turning to `COc1ccnc(C[S+]([O-])c2nc3cc(OC(F)F)ccc3[nH]2)c1OC` (centres undefined) [Pantoprazole], the “percent Bodipy-positive cells” value by setting is: (library stock concentration: 5.2 mM) 11.3% and 13.5%; under setting [3], 43.1 ± 13%. For `COc1ccnc(C[S+]([O-])c2nc3cc(OC(F)F)ccc3[nH]2)c1OC` (centres undefined), under setting [3], the “percent Bodipy-positive cells” value is 8.36 ± 2.8%.

Consider `Cc1[nH]c2ccccc2c1CCNCc1ccc(/C=C/C(=O)NO)cc1` [Panobinostat (LBH589)], for which the “percent Bodipy-positive cells” value reads like this: under setting [2], 67.2 ± 7.7%; under setting [3], 88.2 ± 2.7%. On to `Cc1[nH]c(C=C2C(=O)Nc3ccc(S(=O)(=O)N(C)c4cccc(Cl)c4)cc32)c(C)c1C(=O)N1CCN(C)CC1`, for which the “percent Bodipy-positive cells” value by setting is: under setting [2], 99.82 ± 0.25%; under setting [3], 99.22 ± 0.44%.

Turning to `CC#CCC(C)[C@@H](O)/C=C/[C@@H]1[C@H]2C/C(=C\CCCC(=O)O)C[C@H]2C[C@H]1O` (stereo partly drawn) [5-cis-15(R)-Iloprost], the “percent Bodipy-positive cells” value under setting [1] stood at 8.98 ± 2.7%. For the compound `Cc1ccc(NC(=O)c2ccc(CN3CCN(C)CC3)cc2)cc1Nc1nc(-c2cccnc2)cs1` [Masitinib (AB1010)], the “percent Bodipy-positive cells” value is, setting by setting: under setting [2], 88 ± 2.2%; under setting [3], 89.7 ± 3.3%. As to `N[C@@H](Cc1ccc(O)c(I)c1)C(=O)O` [3-Iodo-L-tyrosine], under setting [3], the “percent Bodipy-positive cells” value was found to be 31.4 ± 8%.

On to `O=C(O)[C@H]1O[C@@H](Oc2cc3oc(-c4ccccc4)cc(=O)c3c(O)c2O)[C@H](O)[C@@H](O)[C@@H]1O` [Baicalin], for which the “percent Bodipy-positive cells” value stood at 16.1 ± 5.8% under setting [2] and 13.3 ± 7.9% under setting [3]. For `Nc1ccc(S(=O)(=O)Nc2ccccn2)cc1` [Sulfapyridine], the “percent Bodipy-positive cells” value is 9.66 ± 0.36%. Also, under “library stock concentration: 8 mM”, the “percent Bodipy-positive cells” value is 17.09 ± 0.087%. Under setting [3], the “percent Bodipy-positive cells” value is 36.8 ± 16%. As for `CCN1CCC(n2cc(CNc3cc(Cl)c4ncc(C#N)c(Nc5ccc(F)c(Cl)c5)c4c3)nn2)CC1`, the “percent Bodipy-positive cells” value reads like this: under setting [4], 19.3 ± 9.2%; under setting [5], 17.9 ± 6.1%; under setting [6], 27 ± 26%. Regarding `CO[C@H]1C[C@H](O[C@H]2[C@H](C)[C@@H](O[C@@H]3O[C@H](C)C[C@H](N(C)C)[C@H]3O)[C@@H](C)C[C@@]3(CO3)C(=O)[C@H](C)[C@@H](O)[C@@H](C)[C@@H](C)OC(=O)[C@@H]2C)O[C@@H](C)[C@@H]1O` [Oleandomycin phosphate], the “percent Bodipy-positive cells” value is 28.2 ± 8.7%. For the same compound, the “percent Bodipy-positive cells” value under setting [3] was 22.8 ± 3%. `Nc1ccc(C(=O)Nc2cccc(-c3nc(N4CCOCC4)c4oc5ncccc5c4n3)c2)cn1`: the “percent Bodipy-positive cells” value runs as follows: under setting [4], 22 ± 12%; under setting [5], 18.5% and 33.3%; under setting [6], 31.4 ± 1.3%; under setting [2], 69.4 ± 4.4%. On to `CN(C)CCCN1c2ccccc2Sc2ccc(Cl)cc21` [Chlorpromazine hydrochloride], for which the “percent Bodipy-positive cells” value came to 77.8 ± 11%. Moreover, the “percent Bodipy-positive cells” value under setting [3] is 97.5 ± 2.2%. As for `CN(C)CCCN1c2ccccc2Sc2ccc(Cl)cc21`, the “percent Bodipy-positive cells” value under setting [3] worked out at 97.16 ± 0.7%. As to `CN(C)CCCN1c2ccccc2Sc2ccc(Cl)cc21` [Chlorpromazine], the “percent Bodipy-positive cells” value under setting [3] is 59.7 ± 3.3%.

Regarding `CN(C)CCCN1c2ccccc2Sc2ccc(Cl)cc21` [Chlorpromazine HCl], the “percent Bodipy-positive cells” value reads like this: under setting [2], 66.7 ± 15%; (library stock concentration: 6.3 mM) 49.9 ± 5.1%. For the compound `CCCCCCCCCCCCCCCCOC[C@H](COP(=O)([O-])OCC[N+](C)(C)C)OC(=O)NC` [Methylcarbamyl PAF C-16], the “percent Bodipy-positive cells” value under setting [1] worked out at 13.5 ± 1.5%.

Consider `COc1cc2c3cc1Oc1c(OC)c(OC)cc4c1[C@@H](Cc1ccc(OC(=O)c5ccc([N+](=O)[O-])cc5)c(c1)Oc1ccc(cc1)C[C@@H]3N(C)CC2)N(C)CC4` [E6 berbamine], for which the “percent Bodipy-positive cells” value (library stock concentration: 6.6 mM) stood at 97.53 ± 0.92%. With `CCc1cc2c(cc1N1CCC(N3CCOCC3)CC1)C(C)(C)c1[nH]c3cc(C#N)ccc3c1C2=O`, the “percent Bodipy-positive cells” value under setting [3] amounted to 75.4 ± 5.3%. Take `O=c1ccc2ccccc2o1` [Coumarin]: the “percent Bodipy-positive cells” value was 15.4 ± 5.5% under setting [2]; 35.6% and 27.6% under setting [3].

Source of the values: the supplement of paper PMC9135407.
